Test results as given in PubChem BioAssay AID445 (National Center for Advancing Translational Sciences (NCATS), 2006).
The other results are listed elsewhere or left out. The main result of the screen is listed elsewhere. These columns were measured beside it and carry no call. The list favours compounds with an active or inconclusive main result. Potencies come from curve fits of mixed quality, noted in brackets.

Assay: IkB Signaling
Conditions: ABC-DLBCL IkBa-CBG/CBR dual luciferase ratio (green luciferase fused to IkBa over red control in OCI-Ly3 lymphoma cells), 4 h
How it was run: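 Curves were fitted separately to fusion (green), unfused (red) and ratio luminescence, then classed by r2, magnitude and activity. Cells: OCI-Ly3, 4 h compound plus doxycycline at 37C; 10 uM MG-132 defined full response.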

[1] = measured here: control luc red channel unless noted

O=C(CSc1nc2ccccc2[nH]1)Nc1ccc2c(c1)OCCO2
AC50 [1]: 25.1 µM [falling, partial curve]

CCOc1ccccc1NC(=O)CN1C(=O)COc2ccc(S(=O)(=O)N3CCCCC3)cc21
AC50 [1]: 25.1 µM [falling, single point]

O=C(c1ccc(Br)s1)N(Cc1cccnc1)c1nc2ccc(F)cc2s1
AC50 [1]: 2.51 µM [falling, full curve]

CCN1C(=O)CC(C(=O)Nc2ccc(F)cc2)SC1=Nc1cccc(OC)c1 (centres undefined)
AC50 [1]: 20 µM [falling, partial curve]

Cn1cc(C(c2ccccc2)c2ccc(Cl)s2)c2ccccc21 (centres undefined)
AC50 [1]: 25.1 µM [falling, single point]

CCn1c(=O)n(CC(=O)N(C)Cc2ccccc2)c(=O)c2ccccc21
AC50 [1]: 5.01 µM [falling, partial curve]

CCc1ccc2oc(-c3ccc(N)cc3)nc2c1
AC50 [1]: 0.02 µM [falling, full curve]

CCc1ccccc1NC(=O)c1cc2nc(-c3ccc(OC)c(OC)c3)cc(C(F)(F)F)n2n1
AC50 [1]: 2 µM [rising, full curve, poor fit]

CCOCCCNC(=O)c1c(NC(=O)c2cc(=O)c3ccccc3o2)sc2c1CCC2
AC50 [1]: 15.8 µM [falling, single point]

COc1ccccc1N1CCN(C(=O)Nc2cn(CC(C)C)c(=O)c3ccccc23)CC1
AC50 [1]: 39.8 µM [falling, single point]

Cc1occc1-c1nnc(SCC(=O)Nc2ccc(F)cc2)n1Cc1ccccc1
AC50 [1]: 3.16 µM [falling, partial curve]

CC(C)C(=O)Nc1cccc(C(=O)Nc2nnc(CC(C)(C)C)s2)c1
AC50 [1]: 39.8 µM [falling, single point]

CS(=O)(=O)Nc1cccc(-c2nc(Nc3ccc(F)cc3)c3ccccc3n2)c1
AC50 (measured here: IkB-luc green channel): 3.16 µM [falling, partial curve] | AC50 (measured here: control luc red channel): 3.98 µM [falling, partial curve]

Cc1ccc(C)c(N2CCN(C(=O)CC3Sc4ccccc4NC3=O)CC2)c1 (centres undefined)
AC50 [1]: 15.8 µM [falling, partial curve]

CC(C)c1ccc(NC(=O)Nc2csc3c2CCCC3)cc1
AC50 [1]: 5.01 µM [falling, full curve, poor fit]

CCCCN(C)CC(O)Cn1cc(/C=C/C(=O)c2ccc(C)cc2)c2ccccc21 (centres undefined)
AC50 [1]: 12.6 µM [falling, partial curve]

COc1ccc(NC(=O)c2c(NCc3cccs3)sc3c2CCCC3)cc1
AC50 [1]: 3.16 µM [falling, partial curve]

Cc1cccc(N2CCN(C(=O)C3CCCN(S(=O)(=O)c4ccc5c(c4)oc(=O)n5C)C3)CC2)c1C (centres undefined)
AC50 [1]: 15.8 µM [falling, partial curve]
